Data taken from PubChem BioAssay AID1671190 (National Center for Advancing Translational Sciences (NCATS), 2021).
Screen size: about 580,000 compounds; about 6,100 (1.1%) were called active. Inconclusive means that the source gave no clear call. Such entries were picked first, then a sample of the others. The call rests on the fitted dose curve; in most records, active means well fitted inhibition curve with a large enough effect; inconclusive means small, poorly fitted or top-dose-only effect, or another doubt; inactive means no such curve, though single readings can be large or run the other way. Potencies of inconclusive entries are doubtful fits and often do not repeat.

Protein sequences, listed by entry. Tags and fused reporters are not part of them. Lines headed by an entry give the natural chain unless they say otherwise; changes in a name come on top.
UniProt P18054: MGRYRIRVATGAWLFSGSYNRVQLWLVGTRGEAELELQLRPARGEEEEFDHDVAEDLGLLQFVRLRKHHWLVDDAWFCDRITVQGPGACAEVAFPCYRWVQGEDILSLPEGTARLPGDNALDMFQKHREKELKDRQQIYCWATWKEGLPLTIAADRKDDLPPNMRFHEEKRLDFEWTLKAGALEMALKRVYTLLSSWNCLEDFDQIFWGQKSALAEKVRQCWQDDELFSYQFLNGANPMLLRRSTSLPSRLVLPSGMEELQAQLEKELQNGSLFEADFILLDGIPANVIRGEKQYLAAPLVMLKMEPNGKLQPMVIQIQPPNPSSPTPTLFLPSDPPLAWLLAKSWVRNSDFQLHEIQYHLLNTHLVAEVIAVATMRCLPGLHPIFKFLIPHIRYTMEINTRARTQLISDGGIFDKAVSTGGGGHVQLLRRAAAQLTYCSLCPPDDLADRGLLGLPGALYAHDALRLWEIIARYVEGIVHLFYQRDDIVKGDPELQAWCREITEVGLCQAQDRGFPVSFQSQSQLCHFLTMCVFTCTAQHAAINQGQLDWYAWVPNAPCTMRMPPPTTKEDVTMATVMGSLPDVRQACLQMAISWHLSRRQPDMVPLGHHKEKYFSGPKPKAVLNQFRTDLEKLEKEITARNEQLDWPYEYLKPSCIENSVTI

Molecular target: Polyunsaturated fatty acid lipoxygenase ALOX12 (Homo sapiens) (UniProt P18054)
Assay: Primary qHTS assay for inhibitors of human arachidonate 12S-lipoxygenase (ALOX12): Round 2
Details: purified 12hLO, xylenol orange hydroperoxide absorbance; activity change, negative = inhibition: at 108 µM (top of the series) unless noted
Outline: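 Hydroperoxide product was detected by ferrous iron/xylenol orange as the 573 to 405 nm absorbance ratio. Arachidonic acid at 40 uM (final) was turned over for 30 min at room temperature by 150 nM human 12hLO, pH 7.0 Hepes buffer, after 15 min compound preincubation.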
On the % scale 0 is the no-effect control and ±100 the full control effect; potency means the concentration at half of the fitted maximal effect.

SMILES | activity change, negative = inhibition | Potency
O=C(Nc1cccc(C(F)(F)F)c1)c1cccnc1N1CCN(CCO)CC1 | inactive: -13.9% | 
O=C(CN1c2cccc3cccc(c23)S1(=O)=O)Nc1ccc(S(=O)(=O)N2CCCC2)cc1 |  | inconclusive: 35.5 µM [inhibitor, partial curve, poor fit]
COc1ccc(N2CCN(C(=O)Cc3csc(NC(=O)Nc4ccccc4OC)n3)CC2)cc1 |  | inconclusive: 39.8 µM [inhibitor, partial curve, poor fit]
CCOCCCNCc1cc(=O)oc2ccc3ccccc3c12 |  | inconclusive: 112 µM [inhibitor, single point]
Cc1cccc(N(C)C(=O)COC(=O)c2ccc(F)cc2)c1 |  | inconclusive: 56.2 µM [inhibitor, partial curve, poor fit]
COc1ccc(-c2cc(C(=O)NCc3cc(C)on3)c3c(c2)N(C)CCO3)cc1OC | inactive: -9.27% [at 176 µM] | 
CN(C)C(=O)CN1CCN(C(C(=O)O)c2c[nH]c3ccc(NC(=O)c4ccccc4)cc23)CC1 (stereo not given) | inactive: -23.3% | 
Cn1c(SCc2ccc(F)cc2)nc2ccc(C(=O)NCc3cccc(Cl)c3)cc21 |  | inconclusive: 126 µM [inhibitor, partial curve, poor fit]
CC[n+]1ccc(/C=C2\Sc3ccccc3N2CCCS(=O)(=O)[O-])c2ccccc21 |  | inconclusive: 25.1 µM [inhibitor, partial curve]
COc1ccccc1NC(=O)N1CCOc2ccc(CN3CCc4ccccc4C3)cc2C1 | inactive: 47.4% | 
COc1ccc2[nH]c(C)c(C(=O)CN3CCC(Cc4ccccc4)CC3)c2c1 |  | active: 25.1 µM
Cc1ccc(NC(=O)CN2C(=O)N/C(=C/c3ccco3)C2=O)cc1 | inactive: 5.45% | 
Oc1ccc(C2(c3ccccc3)CCCCC2)cc1 |  | inconclusive: 39.8 µM [inhibitor, partial curve, poor fit]
Cc1ccc(C(=O)NCCc2csc(-c3cccc(F)c3)n2)cc1C |  | inconclusive: 56.2 µM [inhibitor, partial curve, poor fit]
Cc1ccc(NC(=O)c2ccoc2)cc1I |  | inconclusive: 79.4 µM [inhibitor, partial curve, poor fit]
CN1CCN(C2=CC(=O)OC23CCCCC3)CC1 |  | inconclusive: 25.1 µM [inhibitor, partial curve, poor fit]
COc1cc(/C=N/Nc2ccc([N+](=O)[O-])cc2S(=O)(=O)N2CCOCC2)cc(OC)c1OC | inactive: -9.56% | 
CCN(CC)S(=O)(=O)c1ccc(/C=C/C(=O)Nc2ccc(F)c(F)c2F)cc1 | inactive: -3.17% | 
Cc1ccc(C2Nc3cccc4cccc(c34)N2)s1 |  | inconclusive: 56.2 µM [inhibitor, partial curve, poor fit]
C=C1CCC[C@]2(C)C[C@H]3OC(=O)C(CNC(C)CCCC(C)C)[C@H]3CC12 (stereo not given in full) |  | inconclusive: 50.1 µM [inhibitor, partial curve, poor fit]
Cc1cc(C)c2cc(CN(Cc3ccc4c(c3)OCO4)Cc3nnnn3Cc3ccco3)c(=O)[nH]c2c1 |  | inconclusive: 44.7 µM [inhibitor, partial curve, poor fit]
O=C(O)c1cc(-c2ccc(Cl)c(Cl)c2)nc2ccccc12 |  | inconclusive: 44.7 µM [inhibitor, partial curve, poor fit]

Some values from the results shown.
In activity change, negative = inhibition, `CN(C)C(=O)CN1CCN(C(C(=O)O)c2c[nH]c3ccc(NC(=O)c4ccccc4)cc23)CC1` (stereo not given) reads inactive: -23.3%
In Potency, `Cc1ccc(C2Nc3cccc4cccc(c34)N2)s1` reads inconclusive: 56.2 µM [inhibitor, partial curve, poor fit]
In Potency, `COc1ccc(N2CCN(C(=O)Cc3csc(NC(=O)Nc4ccccc4OC)n3)CC2)cc1` reads inconclusive: 39.8 µM [inhibitor, partial curve, poor fit]
In Potency, `CCOCCCNCc1cc(=O)oc2ccc3ccccc3c12` reads inconclusive: 112 µM [inhibitor, single point]

Following part

SMILES | activity change, negative = inhibition | Potency
Cc1occc1C(=O)NCCCc1ccccc1 |  | inconclusive: 100 µM [inhibitor, single point]
CCOC(=O)c1cnc2c(ccc3ccccc32)c1Nc1ccccc1O |  | inconclusive: 56.2 µM [inhibitor, partial curve, poor fit]
CCOC(=O)c1cccc(NC(=O)COc2ccc3c(C)cc(=O)oc3c2)c1 | inconclusive: -46.1% [inhibitor] | 
Cc1ccc(Cl)cc1N1CCN(C(=O)CSc2ccsc2[N+](=O)[O-])CC1 |  | inconclusive: 44.7 µM [inhibitor, partial curve, poor fit]
COC(=O)C(C(=O)OC)C(C)C(C(=O)OC)C(=O)OC |  | inconclusive: 79.4 µM [inhibitor, partial curve, poor fit]
Cc1cccc(Cn2c(CN3CCC(C(=O)NC(C)C)CC3)cc3ccccc32)c1 |  | inconclusive: 50.1 µM [inhibitor, partial curve, poor fit]
CCCCn1nc(C(=O)NCc2ccccc2)c2ccccc2c1=O | inactive: 5.83% | 
COc1ccccc1NC(=O)CSc1nnc(-c2ccoc2C)n1CCc1ccccc1 |  | inconclusive: 39.8 µM [inhibitor, single point]
COc1ccc(C(NC(=O)C2CCN(CCOc3ccc(Cl)cc3Cl)CC2)c2ccccn2)cc1 (stereo not given) | inactive: -10.5% | 
O=C(CCN1C(=O)c2ccc(Br)cc2C1=O)NC1CCCCC1 |  | inconclusive: 0.708 µM [inhibitor, full curve, poor fit]
O=C1C=C(c2cccc(O)c2)C[C@@H](c2ccc(F)cc2)C1 |  | inconclusive: 79.4 µM [inhibitor, partial curve, poor fit]
CN(C1=C(NC(=O)c2ccccc2)C(=O)c2ccccc2C1=O)C1CCS(=O)(=O)C1 (stereo not given) |  | inconclusive: 50.1 µM [inhibitor, partial curve, poor fit]
COc1ccc2c(C)c(Cc3ccccc3)c(=O)oc2c1OC | inactive: -7.17% | 
O=C(/C=C/c1cccc2ccccc12)c1ccncc1 |  | inconclusive: 50.1 µM [inhibitor, partial curve, poor fit]
O=C1C(=C(I)I)c2ccccc2-c2ccccc21 |  | active: 5.62 µM
Cc1ccc(C(=O)N(CN2CCCC2=O)c2ccccc2)cc1C | inactive: -8.73% | 
Cn1c(SCCCC(=O)c2ccc(F)cc2)nnc1-c1ccncc1 | inactive: 2.86% | 
O=C(CN(c1ccccc1F)S(=O)(=O)c1ccccc1)Nc1ccccc1C(=O)O |  | inconclusive: 79.4 µM [inhibitor, partial curve, poor fit]
CC1CCN(C(=O)COc2cc(O)c3c(=O)cc(-c4ccccc4)oc3c2)CC1 |  | inconclusive: 4.47 µM [inhibitor, full curve]
O=C(O)c1ccc(COc2ccccc2Cl)o1 |  | inconclusive: 126 µM [inhibitor, partial curve, poor fit]
O=c1[nH]c2ccc(-c3csc(Nc4ccc(F)cc4)n3)cc2o1 |  | active: 17.8 µM
COc1ccc(C2C(C(=O)Nc3ccccc3)=C(C)Nc3nc(-c4ccc(Cl)cc4)nn32)cc1 (stereo not given) |  | inconclusive: 56.2 µM [inhibitor, partial curve, poor fit]

SMILES | activity change, negative = inhibition | Potency
O=C(Nc1cccc(S(=O)(=O)N2CCCCCC2)c1)C1CCN(C(=O)c2ccc(F)cc2)CC1 |  | inconclusive: 112 µM [inhibitor, single point]
CC(C)Cn1c(O)c(N=NC(=O)c2cccc(S(=O)(=O)N3CCCCC3)c2)c2ccccc21 | inactive: 5.16% | 
O=C1N=C(N2CCOCC2)S/C1=C1\C(=O)N(Cc2ccccc2)c2ccccc21 |  | inconclusive: 35.5 µM [inhibitor, single point]
Cc1ccc(CNC(=O)N2C[C@@H](Oc3cccnc3)C[C@H]2C(=O)N2CCCC2)cc1 | inactive: 8.95% | 
COc1ccc2cc(/C=C(\NC(=O)c3ccccc3)C(=O)NCCO)c(Cl)nc2c1 |  | inconclusive: 50.1 µM [inhibitor, partial curve, poor fit]
COc1ccc(-c2cc(C(=O)NCCN3CCOCC3)c3ccccc3n2)cc1 | inactive: 0% | 
COc1ccc(-c2cn3c(n2)sc2cc(C(=O)NCCCN4CCN(C)CC4)ccc23)cc1 |  | inconclusive: 70.8 µM [inhibitor, partial curve, poor fit]
C[C@H](N)c1nnc(SCc2ccc(Cl)cc2Cl)o1 | inactive: 2.95% | 
Cc1oncc1C(=S)Nc1ccccc1 |  | inconclusive: 50.1 µM [inhibitor, partial curve, poor fit]
CCC(=O)Nc1ccc(N2CCN(C(=O)c3ccco3)CC2)c(Cl)c1 |  | inconclusive: 35.5 µM [inhibitor, single point]
Cc1cccc(OCC(O)CN2C(C)(C)CC(O)CC2(C)C)c1 (stereo not given) | inactive: 0% | 
Cc1ccc(-n2nnnc2SCC(=O)N2CCN(CC(=O)N3CCCC3)CC2)c(C)c1 | inactive: 1.97% | 
COCCCNC(=S)N1CCN(c2nc(-c3cccc(OC)c3)cs2)CC1 |  | inconclusive: 79.4 µM [inhibitor, partial curve, poor fit]
Cc1cccc(Nc2nc(-c3ccccc3)nc3ccccc23)c1 | inactive: 0% | 
O=C(CN1CCC(Cc2ccccc2)CC1)Nc1ccc2c(c1)OCCO2 |  | inconclusive: 22.4 µM [inhibitor, partial curve, poor fit]
Cc1cccn2c(CNCC(C)Oc3cccnc3)c(C(=O)N3CCOCC3)nc12 (stereo not given) |  | inconclusive: 12.6 µM [inhibitor, partial curve, poor fit]
O=C1CNC(=O)/C1=C/c1ccc(O)cc1 |  | inconclusive: 50.1 µM [inhibitor, partial curve, poor fit]
CC(C)CCn1c(=O)n(CC(=O)O)c(=O)c2c3c(sc21)COC(C)(C)C3 |  | inconclusive: 39.8 µM [inhibitor, partial curve, poor fit]
Cc1ccc(S(=O)(=O)N2[C@@H](c3ccccc3F)C(C(=O)O)=CC[C@H]2c2ccc(C(C)C)cc2)cc1 |  | inconclusive: 44.7 µM [inhibitor, partial curve, poor fit]
CS(=O)(=O)c1ccc(OCC2(CNCc3cccc(C(F)(F)F)c3)C[C@@H](O)[C@@H](O)C2)cc1 (stereo not given in full) |  | inconclusive: 39.8 µM [inhibitor, partial curve]
CCOc1ccc(CN(C)C(=O)C2CCN(c3nc4ccccc4o3)CC2)cc1OC |  | inconclusive: 39.8 µM [inhibitor, partial curve, poor fit]
